Results are given in words; binding and its absence hold for the method and conditions named. Some results given as binding are weak or reduced against the parent protein; the word gives no strength.
Columns and labels:
Pex9 (S. cerevisiae) = target: T1, Pex9 (S. cerevisiae) (UniProt Q04364); test: two-hybrid
T1 sequence: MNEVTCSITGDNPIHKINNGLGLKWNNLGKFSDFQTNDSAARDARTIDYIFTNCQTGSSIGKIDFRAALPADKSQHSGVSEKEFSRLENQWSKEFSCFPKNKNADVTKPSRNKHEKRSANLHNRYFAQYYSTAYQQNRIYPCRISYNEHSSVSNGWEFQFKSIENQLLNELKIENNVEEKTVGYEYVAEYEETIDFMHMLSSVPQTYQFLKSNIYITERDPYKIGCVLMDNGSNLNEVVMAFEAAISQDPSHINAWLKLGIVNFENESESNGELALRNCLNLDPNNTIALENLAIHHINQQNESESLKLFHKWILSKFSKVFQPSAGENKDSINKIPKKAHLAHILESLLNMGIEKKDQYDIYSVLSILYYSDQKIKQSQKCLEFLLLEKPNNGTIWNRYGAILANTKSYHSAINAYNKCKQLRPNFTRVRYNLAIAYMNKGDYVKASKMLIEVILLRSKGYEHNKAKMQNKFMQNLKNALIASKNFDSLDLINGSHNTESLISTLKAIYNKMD

Pex5 (S. cerevisiae) = target: T2, Pex5 (S. cerevisiae) (UniProt P35056); test: two-hybrid
T2 sequence: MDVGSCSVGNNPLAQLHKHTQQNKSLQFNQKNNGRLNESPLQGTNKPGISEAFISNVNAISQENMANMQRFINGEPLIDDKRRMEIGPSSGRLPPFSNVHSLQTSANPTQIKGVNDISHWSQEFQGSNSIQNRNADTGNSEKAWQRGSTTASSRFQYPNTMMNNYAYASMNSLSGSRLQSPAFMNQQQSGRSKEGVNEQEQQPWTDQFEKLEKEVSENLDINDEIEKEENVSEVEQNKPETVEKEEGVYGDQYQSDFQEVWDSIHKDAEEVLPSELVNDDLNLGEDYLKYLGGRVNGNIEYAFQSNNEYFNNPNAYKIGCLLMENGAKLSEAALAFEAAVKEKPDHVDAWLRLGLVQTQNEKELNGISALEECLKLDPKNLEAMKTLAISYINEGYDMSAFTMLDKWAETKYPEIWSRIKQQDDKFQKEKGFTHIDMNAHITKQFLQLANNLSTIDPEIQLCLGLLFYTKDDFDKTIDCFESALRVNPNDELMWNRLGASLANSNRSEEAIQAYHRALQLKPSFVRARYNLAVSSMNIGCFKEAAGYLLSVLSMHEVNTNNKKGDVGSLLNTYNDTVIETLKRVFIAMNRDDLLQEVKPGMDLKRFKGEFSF

B1: Fsh3 (protein, UniProt Q99369 1-266)
chain: MSEKKKVLMLHGFVQSDKIFSAKTGGLRKNLKKLGYDLYYPCAPHSIDKKALFQSESEKGRDAAKEFNTSATSDEVYGWFFRNPESFNSFQIDQKVFNYLRNYVLENGPFDGVIGFSQGAGLGGYLVTDFNRILNLTDEQQPALKFFISFSGFKLEDQSYQKEYHRIIQVPSLHVRGELDEVVAESRIMALYESWPDNKRTLLVHPGAHFVPNSKPFVSQVCNWIQGITSKEGQEHNAQPEVDRKQFDKPQLEDDLLDMIDSLGKL
With B1 the binding (Pex9 (S. cerevisiae)) was “binds” and the binding (Pex5 (S. cerevisiae)) was “no binding”.

LDMIDSLGKL (peptide, UniProt Q99369 257-266) [last 10 amino acids of Fsh3 (aa257-266)] was tested, and the binding (Pex5 (S. cerevisiae)) was “binds”.

In the case of KATPTDLSKL (peptide, UniProt P30952 545-554) [last 10 amino acids of Mls1 (aa545-554)], the binding (Pex5 (S. cerevisiae)) is reported as “binds”.

B2: Mls1 (enzyme, UniProt P30952 1-554)
chain: MVKVSLDNVKLLVDVDKEPFFKPSSTTVGDILTKDALEFIVLLHRTFNNKRKQLLENRQVVQKKLDSGSYHLDFLPETANIRNDPTWQGPILAPGLINRSTEITGPPLRNMLINALNAPVNTYMTDFEDSASPTWNNMVYGQVNLYDAIRNQIDFDTPRKSYKLNGNVANLPTIIVRPRGWHMVEKHLYVDDEPISASIFDFGLYFYHNAKELIKLGKGPYFYLPKMEHHLEAKLWNDVFCVAQDYIGIPRGTIRATVLIETLPAAFQMEEIIYQLRQHSSGLNCGRWDYIFSTIKRLRNDPNHILPNRNQVTMTSPFMDAYVKRLINTCHRRGVHAMGGMAAQIPIKDDPAANEKAMTKVRNDKIRELTNGHDGSWVAHPALAPICNEVFINMGTPNQIYFIPENVVTAANLLETKIPNGEITTEGIVQNLDIGLQYMEAWLRGSGCVPINNLMEDAATAEVSRCQLYQWVKHGVTLKDTGEKVTPELTEKILKEQVERLSKASPLGDKNKFALAAKYFLPEIRGEKFSEFLTTLLYDEIVSTKATPTDLSKL
For B2, the binding (Pex9 (S. cerevisiae)) was “binds” and the binding (Pex5 (S. cerevisiae)) was “no binding”.

B3: Mls2 (enzyme, UniProt P21826 1-554)
chain: MVKISLDNTALYADIDTTPQFEPSKTTVADILTKDALEFIVLLHRTFNSTRKQLLANRSNLQSKLDSGEYRFDFLPETEQIRNDPTWQGAIPAPGLINRSSEITGPPLRNMLVNALNAEVTTYMTDFEDSSSPTWENMIYGQVNLYDAIRNQIDFKTPRKEYRLKDDISRLPTLIVRPRGWHMVEKHLYIDDEPISASIFDFGLYFYHNAKELVKIGKGPYFYLPKMEHHMEVKLWNDIFCVAQDFIGMPRGTIRATVLIETLPAAFQMEEIIYQIREHSSGLNCGRWDYIFSTIKKLRNLPEHVLPNRDLVTMTSPFMDAYVKRLINTCHRRGVHAMGGMAAQIPIKDDPKANEAAMNKVRNDKIREMKNGHDGSWVAHPALAPICNEVFSNMGTANQIYFVPDVHVTSSDLLNTKIQDAQVTTEGIRVNLDIGLQYMEAWLRGSGCVPINHLMEDAATAEVSRCQLYQWVKHGVVLSDTGDKVTPELTAKILNEETAKLASASPLGEKNKFALAAKYFLPEVTGKIFSDFLTTLLYDEIIKPSAKPVDLSKL
With B3 the binding (Pex9 (S. cerevisiae)) was “binds” and the binding (Pex5 (S. cerevisiae)) was “no binding”.

In the case of KSFILDSSKL (peptide, UniProt P32419 334-343) [last 10 amino acids of Mdh3 (aa334-343)], the binding (Pex9 (S. cerevisiae)) is reported as “binds”.

B4: Afr1 (protein, UniProt P33304 1-620)
chain: MEGSYLSAQENQPIPERLIPRSNSTSNLFALSSTFSKLNVRNDADYNYSNPNKKRHIYSGEIDCRSVTAARKFPVRSCSMTAAQQRKRTALFTVRERNSYHEGFNNDQDYVSQYQKPQYTFGVYKELTPYQLQRSKMKRSFQFPNGEIYKPKLDGKCTHSLKKPELNSRDSSLFKFSEKKGRNLSKDFVGPHNGTSVIHIPPNDTGYGVNSLELNTSVPSTIKSSVSSTSPISAVNTLTSLPESQTDDDDGYENKTVTISYCFENTVNEKHGSHIEKLDLSTKEKTKPTTNSGLFDRKKKTILGTEKYRCIKSQSKLKLGSVLKKLWRTSGNSNTKHGKKDTKRRRIPIDDMVTHSDGNSEAENDIELMDANLDGIEFDDDETLMDTDSIFDDLLSKENDKYDLRRRQLEIRQKLHETSHNDDGKVSFRDTEKHNVNEGLIDKTIIEEFSKLGEYIIDTRNQPPPRSSKRPSLDDNESARYFYNISTDLRQSLSGPISLPMHVGNDMVNRLRNDWEYIRFEDRRNSLPDSSFDKVETPPKPIKKDVRFAKEVCLASTWSSNAYERANPEFIMNRHRLLWMMKVHPSMNSAMNEIKLELNSYKKNEMVVHENSKCFTHYLI
With B4 the binding (Pex9 (S. cerevisiae)) was “no binding” and the binding (Pex5 (S. cerevisiae)) was “no binding”.

B5: Mdh3 (enzyme, UniProt P32419 1-343)
chain: MVKVAILGASGGVGQPLSLLLKLSPYVSELALYDIRAAEGIGKDLSHINTNSSCVGYDKDSIENTLSNAQVVLIPAGVPRKPGLTRDDLFKMNAGIVKSLVTAVGKFAPNARILVISNPVNSLVPIAVETLKKMGKFKPGNVMGVTNLDLVRAETFLVDYLMLKNPKIGQEQDKTTMHRKVTVIGGHSGETIIPIITDKSLVFQLDKQYEHFIHRVQFGGDEIVKAKQGAGSATLSMAFAGAKFAEEVLRSFHNEKPETESLSAFVYLPGLKNGKKAQQLVGDNSIEYFSLPIVLRNGSVVSIDTSVLEKLSPREEQLVNTAVKELRKNIEKGKSFILDSSKL
For B5, the binding (Pex9 (S. cerevisiae)) was “no binding”.
